Laboratory results reported in the supplement of paper PMC8728848.
This is one part of the list.

Legend:
Assay in all cases: glycan array binding signal (z-score within array); higher = stronger binding
Details in all cases: glycan notation: IUPAC condensed, linker removed
[1] = molecular target: Neu5Ac(a2-6)GlcNAc(b1-4)GlcNAc(b1-4)GlcNAc
Summary of the method: (§1)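 Glycan array data were curated from 3228 arrays in the Consortium for Functional Glycomics database and kept only where the protein sequence was available. Glycan names were converted to IUPAC-condensed notation, and columns mapping to the same glycan were averaged. The binding signal is a within-array Z-score, averaged across arrays of the same protein sequence at different concentrations or buffers and across linkers. Negative Z-scores can be read as non-binding.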

[2] = molecular target: Neu5Ac(a2-8)Neu5Ac
Summary of the method: as §1

[3] = molecular target: Neu5Ac(a2-8)Neu5Ac(a2-3)Gal(b1-3)GalNAc(b1-4)[Neu5Ac(a2-3)]Gal(b1-4)Glc
Summary of the method: as §1

[4] = molecular target: Neu5Ac(a2-8)Neu5Ac(a2-3)Gal(b1-3)GalNAc(b1-4)[Neu5Ac(a2-8)Neu5Ac(a2-3)]Gal(b1-4)Glc
Summary of the method: as §1

[5] = molecular target: Neu5Ac(a2-8)Neu5Ac(a2-3)Gal(b1-4)Glc
Summary of the method: as §1

[6] = molecular target: Neu5Ac(a2-8)Neu5Ac(a2-3)Gal(b1-4)GlcNAc
Summary of the method: as §1

[7] = molecular target: Neu5Ac(a2-8)Neu5Ac(a2-3)[Gal(b1-3)GalNAc(b1-4)]Gal(b1-4)Glc
Summary of the method: as §1

[8] = molecular target: Neu5Ac(a2-8)Neu5Ac(a2-3)[GalNAc(b1-4)]Gal(b1-4)Glc
Summary of the method: as §1

[9] = molecular target: Neu5Ac(a2-8)Neu5Ac(a2-8)Neu5Ac
Summary of the method: as §1

[10] = molecular target: Neu5Ac(a2-8)Neu5Ac(a2-8)Neu5Ac(a2-3)Gal(b1-4)Glc
Summary of the method: as §1

[11] = molecular target: Neu5Ac(a2-8)Neu5Ac(a2-8)Neu5Ac(a2-3)[Gal(b1-3)GalNAc(b1-4)]Gal(b1-4)Glc
Summary of the method: as §1

[12] = molecular target: Neu5Ac(a2-8)Neu5Ac(a2-8)Neu5Ac(a2-3)[GalNAc(b1-4)]Gal(b1-4)Glc
Summary of the method: as §1

[13] = molecular target: Neu5Ac(a2-8)Neu5Ac(a2-8)Neu5Ac(a2-8)Neu5Ac(a2-3)[GalNAc(b1-4)]Gal(b1-4)Glc
Summary of the method: as §1

[14] = molecular target: Neu5Ac(a2-8)Neu5Gc(a2-3)Gal(b1-4)GlcNAc
Summary of the method: as §1

[15] = molecular target: Neu5Ac(b2-6)Gal(b1-4)GlcNAc
Summary of the method: as §1

[16] = molecular target: Neu5Ac(b2-6)GalNAc
Summary of the method: as §1

[17] = molecular target: Neu5Ac9Ac(a2-3)Gal(b1-3)GlcNAc
Summary of the method: as §1

[18] = molecular target: Neu5Ac9Ac(a2-3)Gal(b1-4)GlcNAc
Summary of the method: as §1

[19] = molecular target: Neu5Ac9Ac(a2-6)Gal(b1-4)GlcNAc
Summary of the method: as §1

[20] = molecular target: Neu5Gc(a2-3)Gal(b1-3)GlcNAc
Summary of the method: as §1

[21] = molecular target: Neu5Gc(a2-3)Gal(b1-3)[Fuc(a1-4)]GlcNAc
Summary of the method: as §1

[22] = molecular target: Neu5Gc(a2-3)Gal(b1-4)Glc
Summary of the method: as §1

[23] = molecular target: Neu5Gc(a2-3)Gal(b1-4)GlcNAc
Summary of the method: as §1

[24] = molecular target: Neu5Gc(a2-3)Gal(b1-4)GlcNAc(b1-3)Gal(b1-4)GlcNAc(b1-2)Man(a1-3)[Neu5Gc(a2-3)Gal(b1-4)GlcNAc(b1-3)Gal(b1-4)GlcNAc(b1-2)Man(a1-6)]Man(b1-4)GlcNAc(b1-4)GlcNAc
Summary of the method: as §1

[25] = molecular target: Neu5Gc(a2-3)Gal(b1-4)[Fuc(a1-3)]GlcNAc
Summary of the method: as §1

[26] = molecular target: Neu5Gc(a2-6)Gal(b1-4)GlcNAc
Summary of the method: as §1

[27] = molecular target: Neu5Gc(a2-6)GalNAc
Summary of the method: as §1

[28] = molecular target: Neu5Gc(a2-8)Neu5Ac(a2-3)Gal(b1-4)GlcNAc
Summary of the method: as §1

[29] = molecular target: Neu5Gc(a2-8)Neu5Gc(a2-3)Gal(b1-4)GlcNAc
Summary of the method: as §1

[30] = molecular target: Neu5Gc(a2-8)Neu5Gc(a2-3)Gal(b1-4)GlcNAc(b1-3)Gal(b1-4)GlcNAc
Summary of the method: as §1

[31] = molecular target: Neu5Gc(a2-8)Neu5Gc(a2-6)Gal(b1-4)GlcNAc
Summary of the method: as §1

[32] = molecular target: Neu5Gc(b2-6)Gal(b1-4)GlcNAc
Summary of the method: as §1

B1: Clone646PsrP (Streptococcus pneumoniae) (protein)
chain: MDHHHHHHHHASENLYFQGAPAINASLNIAKSETKVYTGEGVDSVYRVPIYYKLKVTNDGSKLTFTYTVTYVNPKTNDLGNISSMRPGYSIYNSGTSTQTMLTLGSDLGKPSGVKNYITDKNGRQVLSYNTSTMTTQGSGYTWGNGAQMNGFFAKKGYGLTSSWTVPITGTDTSFTFTPYAARTDRIGINYFNGGGKVVESSTTSQSLSQSKSLSVSAS
With B1 the “glycan array binding signal (z-score)” value [1] was -0.662, the “glycan array binding signal (z-score)” value [2] was 0.174 and the “glycan array binding signal (z-score)” value [3] was -0.268. For the same binder, the “glycan array binding signal (z-score)” value [4] was 2.15, the “glycan array binding signal (z-score)” value [5] was -0.94 and the “glycan array binding signal (z-score)” value [6] was -0.777. For the same binder, the “glycan array binding signal (z-score)” value [7] was -0.274, the “glycan array binding signal (z-score)” value [8] was -0.817 and the “glycan array binding signal (z-score)” value [9] was -0.531. The “glycan array binding signal (z-score)” value [10] was 0.236, the “glycan array binding signal (z-score)” value [11] was 2.04 and the “glycan array binding signal (z-score)” value [12] was -0.849. For the same binder, the “glycan array binding signal (z-score)” value [13] was -0.64, the “glycan array binding signal (z-score)” value [14] was 0.146 and the “glycan array binding signal (z-score)” value [15] was -0.981. For the same binder, the “glycan array binding signal (z-score)” value [16] was -0.595, the “glycan array binding signal (z-score)” value [17] was 0.071 and the “glycan array binding signal (z-score)” value [18] was -0.235. The “glycan array binding signal (z-score)” value [19] was -0.651, the “glycan array binding signal (z-score)” value [20] was -0.148 and the “glycan array binding signal (z-score)” value [21] was 0.496. The “glycan array binding signal (z-score)” value [22] was -0.207, the “glycan array binding signal (z-score)” value [23] was -0.146 and the “glycan array binding signal (z-score)” value [24] was 0.176. For the same binder, the “glycan array binding signal (z-score)” value [25] was 0.164, the “glycan array binding signal (z-score)” value [26] was 0.141 and the “glycan array binding signal (z-score)” value [27] was 0.291. The “glycan array binding signal (z-score)” value [28] was -1.02, the “glycan array binding signal (z-score)” value [29] was -0.797 and the “glycan array binding signal (z-score)” value [30] was -0.912. For the same binder, the “glycan array binding signal (z-score)” value [31] was -0.847 and the “glycan array binding signal (z-score)” value [32] was -0.219.
